Measured values as given in the supplement of paper PMC4604168 (melanoma cell lines).
This is one part of the list. Repeats are few or missing, and single values can be far off.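 The apoptosis fraction was the count of cleaved-PARP antibody-stained nuclei relative to all DNA-stained nuclei, imaged in 1,536-well plates. Screening doses were set so most cells survived, and baseline and induced cleaved-PARP levels vary greatly across cell lines.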

Experiments:
Assay in all cases: cleaved PARP positive nuclei fraction relative to DMSO control; melanoma cells; higher = more apoptosis
Settings in all cases: library dose: low library concentration; 72 h
MZ2-MEL = system: MZ2-MEL
MeWo = system: MeWo
RPMI7951 = system: RPMI7951
RVH-421 = system: RVH-421
SkMel28 = system: SkMel28
SkMel30 = system: SkMel30
UACC62 = system: UACC62
WM115 = system: WM115
WM1716 = system: WM1716
WM1745 = system: WM1745
WM3526 = system: WM3526
WM3619 = system: WM3619
WM451Lu = system: WM451Lu
SkMel2 = system: SkMel2

## C[C@@H](N)c1ccc(C(=O)Nc2ccnc3[nH]ccc23)cc1 + C[C@]1(c2nc3c(C(N)=O)cccc3[nH]2)CCCN1 [Veliparib] (first compound 0.4 µM, partner dose 1.4 µM)
MZ2-MEL
  cleaved PARP positive nuclei fraction: 67.1%
MeWo
  cleaved PARP positive nuclei fraction: 164%
RPMI7951
  cleaved PARP positive nuclei fraction: 59.3%
RVH-421
  cleaved PARP positive nuclei fraction: 154%
SkMel28
  cleaved PARP positive nuclei fraction: 63%
SkMel30
  cleaved PARP positive nuclei fraction: 50.6%
UACC62
  cleaved PARP positive nuclei fraction: 51.7%
WM115
  cleaved PARP positive nuclei fraction: 88.8%
WM1716
  cleaved PARP positive nuclei fraction: 114%
WM1745
  cleaved PARP positive nuclei fraction: 110%
WM3526
  cleaved PARP positive nuclei fraction: 48.7%
WM3619
  cleaved PARP positive nuclei fraction: 197%
WM451Lu
  cleaved PARP positive nuclei fraction: 322%

## CC(=O)O[C@@]12CO[C@@H]1C[C@H](O)[C@@]1(C)C(=O)[C@H](O)C3=C(C)[C@@H](OC(=O)[C@H](O)[C@@H](NC(=O)OC(C)(C)C)c4ccccc4)C[C@@](O)([C@@H](OC(=O)c4ccccc4)[C@H]21)C3(C)C [Docetaxel] + Cn1c(Nc2ccc(C(F)(F)F)cc2)nc2cc(Oc3ccnc(-c4ncc(C(F)(F)F)[nH]4)c3)ccc21 [CHIR265] (first compound 0.0001 µM, partner dose 0.08 µM)
MZ2-MEL
  cleaved PARP positive nuclei fraction: 341%
MeWo
  cleaved PARP positive nuclei fraction: 2900%
RPMI7951
  cleaved PARP positive nuclei fraction: 275%
RVH-421
  cleaved PARP positive nuclei fraction: 379%
SkMel28
  cleaved PARP positive nuclei fraction: 986%
SkMel2
  cleaved PARP positive nuclei fraction: 1580%
SkMel30
  cleaved PARP positive nuclei fraction: 544%
UACC62
  cleaved PARP positive nuclei fraction: 1030%
WM115
  cleaved PARP positive nuclei fraction: 2050%
WM1716
  cleaved PARP positive nuclei fraction: 16200%
WM1745
  cleaved PARP positive nuclei fraction: 236%
WM3526
  cleaved PARP positive nuclei fraction: 310%
WM3619
  cleaved PARP positive nuclei fraction: 156%
WM451Lu
  cleaved PARP positive nuclei fraction: 112%

## CN(c1ncccc1CNc1nc(Nc2ccc3c(c2)CC(=O)N3)ncc1C(F)(F)F)S(C)(=O)=O + Clc1ccc(Nc2nnc(Cc3ccncc3)c3ccccc23)cc1 [vatalanib] (first compound 0.08 µM, partner dose 2 µM)
MZ2-MEL
  cleaved PARP positive nuclei fraction: 26.9%
MeWo
  cleaved PARP positive nuclei fraction: 161%
RPMI7951
  cleaved PARP positive nuclei fraction: 80.4%
RVH-421
  cleaved PARP positive nuclei fraction: 46.4%
SkMel28
  cleaved PARP positive nuclei fraction: 50.4%
SkMel30
  cleaved PARP positive nuclei fraction: 109%
UACC62
  cleaved PARP positive nuclei fraction: 79.6%
WM115
  cleaved PARP positive nuclei fraction: 182%
WM1716
  cleaved PARP positive nuclei fraction: 73.8%
WM1745
  cleaved PARP positive nuclei fraction: 103%
WM3526
  cleaved PARP positive nuclei fraction: 86.4%
WM3619
  cleaved PARP positive nuclei fraction: 113%
WM451Lu
  cleaved PARP positive nuclei fraction: 194%

## NC(=O)c1ccc(N(C(N)=O)c2c(F)cccc2F)nc1-c1ccc(F)cc1F + CC(=O)c1c(C)c2cnc(Nc3ccc(N4CCNCC4)cn3)nc2n(C2CCCC2)c1=O [palbociclib] (first compound 0.4 µM, partner dose 0.04 µM)
MZ2-MEL
  cleaved PARP positive nuclei fraction: 92.5%
MeWo
  cleaved PARP positive nuclei fraction: 12.3%
RPMI7951
  cleaved PARP positive nuclei fraction: 98.7%
RVH-421
  cleaved PARP positive nuclei fraction: 34.8%
SkMel28
  cleaved PARP positive nuclei fraction: 45.9%
SkMel2
  cleaved PARP positive nuclei fraction: 73.8%
SkMel30
  cleaved PARP positive nuclei fraction: 46.2%
UACC62
  cleaved PARP positive nuclei fraction: 123%
WM115
  cleaved PARP positive nuclei fraction: 91%
WM1716
  cleaved PARP positive nuclei fraction: 49.6%
WM1745
  cleaved PARP positive nuclei fraction: 114%
WM3526
  cleaved PARP positive nuclei fraction: 93.1%
WM3619
  cleaved PARP positive nuclei fraction: 165%
WM451Lu
  cleaved PARP positive nuclei fraction: 32%

## CS(=O)(=O)c1ccc(C(=O)Nc2ccc(Cl)c(-c3ccccn3)c2)c(Cl)c1 [vismodegib] + C=CCNC1=C2C[C@@H](C)C[C@H](OC)[C@H](O)[C@@H](C)/C=C(\C)[C@H](OC(N)=O)[C@@H](OC)/C=C\C=C(/C)C(=O)NC(=CC1=O)C2=O [Tanespimycin] (first compound 1 µM, partner dose 0.002 µM)
MZ2-MEL
  cleaved PARP positive nuclei fraction: 116%
MeWo
  cleaved PARP positive nuclei fraction: 133%
RPMI7951
  cleaved PARP positive nuclei fraction: 68.2%
RVH-421
  cleaved PARP positive nuclei fraction: 59.6%
SkMel28
  cleaved PARP positive nuclei fraction: 57.5%
SkMel2
  cleaved PARP positive nuclei fraction: 68.8%
SkMel30
  cleaved PARP positive nuclei fraction: 19.2%
UACC62
  cleaved PARP positive nuclei fraction: 60.6%
WM115
  cleaved PARP positive nuclei fraction: 48.8%
WM1716
  cleaved PARP positive nuclei fraction: 171%
WM1745
  cleaved PARP positive nuclei fraction: 102%
WM3526
  cleaved PARP positive nuclei fraction: 20.4%
WM3619
  cleaved PARP positive nuclei fraction: 80.6%
WM451Lu
  cleaved PARP positive nuclei fraction: 212%

## C[C@@H](N)c1ccc(C(=O)Nc2ccnc3[nH]ccc23)cc1 + CNC(=O)c1cc(Oc2ccc(NC(=O)Nc3ccc(Cl)c(C(F)(F)F)c3)cc2)ccn1 [sorafenib] (first compound 0.4 µM, partner dose 0.4 µM)
MZ2-MEL
  cleaved PARP positive nuclei fraction: 292%
MeWo
  cleaved PARP positive nuclei fraction: 126%
RPMI7951
  cleaved PARP positive nuclei fraction: 723%
RVH-421
  cleaved PARP positive nuclei fraction: 47.8%
SkMel28
  cleaved PARP positive nuclei fraction: 44.7%
SkMel2
  cleaved PARP positive nuclei fraction: 89.2%
SkMel30
  cleaved PARP positive nuclei fraction: 52.3%
UACC62
  cleaved PARP positive nuclei fraction: 140%
WM115
  cleaved PARP positive nuclei fraction: 111%
WM1716
  cleaved PARP positive nuclei fraction: 89.3%
WM1745
  cleaved PARP positive nuclei fraction: 259%
WM3526
  cleaved PARP positive nuclei fraction: 335%
WM3619
  cleaved PARP positive nuclei fraction: 95.9%
WM451Lu
  cleaved PARP positive nuclei fraction: 42.6%

## CCN(CC)CCNC(=O)c1c(C)[nH]c(/C=C2\C(=O)Nc3ccc(F)cc32)c1C [sunitinib] + Nc1cccc2c1CN(C1CCC(=O)NC1=O)C2=O [lenalidomide] (first compound 0.4 µM, partner dose 1 µM)
MZ2-MEL
  cleaved PARP positive nuclei fraction: 30.3%
MeWo
  cleaved PARP positive nuclei fraction: 89.2%
RPMI7951
  cleaved PARP positive nuclei fraction: 48.4%
RVH-421
  cleaved PARP positive nuclei fraction: 81.4%
SkMel28
  cleaved PARP positive nuclei fraction: 162%
SkMel2
  cleaved PARP positive nuclei fraction: 88.7%
SkMel30
  cleaved PARP positive nuclei fraction: 74.5%
UACC62
  cleaved PARP positive nuclei fraction: 118%
WM115
  cleaved PARP positive nuclei fraction: 89.3%
WM1716
  cleaved PARP positive nuclei fraction: 120%
WM1745
  cleaved PARP positive nuclei fraction: 123%
WM3526
  cleaved PARP positive nuclei fraction: 87.7%
WM3619
  cleaved PARP positive nuclei fraction: 80.7%
WM451Lu
  cleaved PARP positive nuclei fraction: 250%

## CC(=O)O[C@@]12CO[C@@H]1C[C@H](O)[C@@]1(C)C(=O)[C@H](O)C3=C(C)[C@@H](OC(=O)[C@H](O)[C@@H](NC(=O)OC(C)(C)C)c4ccccc4)C[C@@](O)([C@@H](OC(=O)c4ccccc4)[C@H]21)C3(C)C [Docetaxel] + Cc1nc(Nc2ncc(C(=O)Nc3c(C)cccc3Cl)s2)cc(N2CCN(CCO)CC2)n1 [dasatanib] (first compound 0.0001 µM, partner dose 0.004 µM)
MZ2-MEL
  cleaved PARP positive nuclei fraction: 887%
MeWo
  cleaved PARP positive nuclei fraction: 621%
RPMI7951
  cleaved PARP positive nuclei fraction: 355%
RVH-421
  cleaved PARP positive nuclei fraction: 430%
SkMel28
  cleaved PARP positive nuclei fraction: 182%
SkMel2
  cleaved PARP positive nuclei fraction: 1500%
SkMel30
  cleaved PARP positive nuclei fraction: 530%
UACC62
  cleaved PARP positive nuclei fraction: 680%
WM115
  cleaved PARP positive nuclei fraction: 436%
WM1716
  cleaved PARP positive nuclei fraction: 213%
WM1745
  cleaved PARP positive nuclei fraction: 228%
WM3526
  cleaved PARP positive nuclei fraction: 176%
WM3619
  cleaved PARP positive nuclei fraction: 137%
WM451Lu
  cleaved PARP positive nuclei fraction: 94.2%

## NC(=O)c1ccc(N(C(N)=O)c2c(F)cccc2F)nc1-c1ccc(F)cc1F + O=C(O)[C@@H]1[O][Sb](=[O])([O][Sb]2(=[O])[O][C@H]([C@H](O)CO)[C@H](O)[C@H](C(=O)O)[O]2)[O][C@H]([C@H](O)CO)[C@@H]1O [stibogluconate] (first compound 0.4 µM, partner dose 2 µM)
MZ2-MEL
  cleaved PARP positive nuclei fraction: 38.2%
MeWo
  cleaved PARP positive nuclei fraction: 66.7%
RPMI7951
  cleaved PARP positive nuclei fraction: 103%
RVH-421
  cleaved PARP positive nuclei fraction: 34.3%
SkMel28
  cleaved PARP positive nuclei fraction: 67.3%
SkMel2
  cleaved PARP positive nuclei fraction: 46.6%
SkMel30
  cleaved PARP positive nuclei fraction: 15.6%
UACC62
  cleaved PARP positive nuclei fraction: 57.4%
WM115
  cleaved PARP positive nuclei fraction: 128%
WM1716
  cleaved PARP positive nuclei fraction: 77%
WM1745
  cleaved PARP positive nuclei fraction: 101%
WM3526
  cleaved PARP positive nuclei fraction: 154%
WM3619
  cleaved PARP positive nuclei fraction: 91.6%
WM451Lu
  cleaved PARP positive nuclei fraction: 79.4%
